# Laboratory results reported in the supplement of paper PMC8007513.
# Some of the results follow. Most values come without repeats; read them as rough.
# Test system: Saccharomyces cerevisiae BY4743
# Assay: growth (OD600) with compound + IPBC relative to untreated control; higher = less growth inhibition
# Conditions: compound concentration: 133 uM; IPBC concentration: 0.5 ug/ml; 20 h
# Protocol: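 NMCCC compounds (133 uM) combined with IPBC (0.5 ug/ml) against Saccharomyces cerevisiae BY4743 in YPD, 96-well plates. Growth was read as OD600 at 20 h and expressed as % of the untreated control. Single pass.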
row,SMILES,growth
1,Cc1ccc(S(=O)(=O)N(C)c2c(C)ccc(S(=O)(=O)N3CCCC3)c2C)cc1 + CCCCNC(=O)OCC#CI [3-iodo-2-propynyl butylcarbamate (IPBC)],86.3%
2,Cc1nc(C)c(C(=O)OCC(=O)Nc2sc3c(c2C(N)=O)CCCC3)s1 + CCCCNC(=O)OCC#CI [3-iodo-2-propynyl butylcarbamate (IPBC)],100%
3,Cc1ccc(CNS(=O)(=O)c2ccc3c(c2)C(C)(C)C(=O)N3)cc1 + CCCCNC(=O)OCC#CI [3-iodo-2-propynyl butylcarbamate (IPBC)],107%
4,COC1=CC=C(NC(=O)CN2\C(=N/C3=C(C(=NO3)C)C2=O)C)C=C1OC + CCCCNC(=O)OCC#CI [3-iodo-2-propynyl butylcarbamate (IPBC)],98.2%
5,COc1cc(OC)cc(-c2nnc(SCC(=O)N3CCOCC3)o2)c1 + CCCCNC(=O)OCC#CI [3-iodo-2-propynyl butylcarbamate (IPBC)],89.7%
6,CC(C)(C)c1cc(N)n(-c2ccc(C(=O)O)cc2)n1 + CCCCNC(=O)OCC#CI [3-iodo-2-propynyl butylcarbamate (IPBC)],99.6%
7,N#Cc1ccccc1S(=O)(=O)N1CCN(C(=O)COc2ccccc2C(F)(F)F)CC1 + CCCCNC(=O)OCC#CI [3-iodo-2-propynyl butylcarbamate (IPBC)],98.4%
8,CCC(C)N\1C(=O)C2=CC=CC=C2\N=C1SCC(=O)N3CCNC3=O (stereo not drawn) + CCCCNC(=O)OCC#CI [3-iodo-2-propynyl butylcarbamate (IPBC)],77.3%
9,Oc1cc(C(F)(F)F)c2c(-c3ccccc3)noc2n1 + CCCCNC(=O)OCC#CI [3-iodo-2-propynyl butylcarbamate (IPBC)],98%
10,CC(C)CN1\C=C(\NC(=O)NCC2CCCO2)C3=CC=CC=C3C1=O (stereo not drawn) + CCCCNC(=O)OCC#CI [3-iodo-2-propynyl butylcarbamate (IPBC)],105%
11,Oc1nc2ccccc2nc1SCc1ccon1 + CCCCNC(=O)OCC#CI [3-iodo-2-propynyl butylcarbamate (IPBC)],103%
12,CCN(CC)CCNC(=O)c1nn(C)c2c1CSc1ccccc1-2 + CCCCNC(=O)OCC#CI [3-iodo-2-propynyl butylcarbamate (IPBC)],106%
13,COCCn1c(Cc2ccccc2)nnc1SCC(=O)N1CCCC1=O + CCCCNC(=O)OCC#CI [3-iodo-2-propynyl butylcarbamate (IPBC)],70.9%
14,O=C(Nc1cc(Cl)ccc1-n1cncn1)c1cncc(Br)c1 + CCCCNC(=O)OCC#CI [3-iodo-2-propynyl butylcarbamate (IPBC)],84.5%
15,CCC(C)(CNC(=O)c1cc(Br)c(Br)s1)N1CCOCC1 (stereo not drawn) + CCCCNC(=O)OCC#CI [3-iodo-2-propynyl butylcarbamate (IPBC)],114%
16,CCOC(=O)c1c(-c2ccc(Cl)cc2)nn2c1NCN(CCOC)C2 + CCCCNC(=O)OCC#CI [3-iodo-2-propynyl butylcarbamate (IPBC)],93.1%
17,COc1ccc(-c2cnn3c(C(F)(F)F)cc(C(F)(F)F)nc23)cc1OC + CCCCNC(=O)OCC#CI [3-iodo-2-propynyl butylcarbamate (IPBC)],102%
18,Cc1nn(CC(C)C)c2sc(C(=O)OCC(=O)NC(=O)NCC(C)C)cc12 + CCCCNC(=O)OCC#CI [3-iodo-2-propynyl butylcarbamate (IPBC)],89.4%

# As entered above:
# In growth, COc1cc(OC)cc(-c2nnc(SCC(=O)N3CCOCC3)o2)c1 + CCCCNC(=O)OCC#CI [3-iodo-2-propynyl butylcarbamate (IPBC)] is entered as 89.7%
# In growth, N#Cc1ccccc1S(=O)(=O)N1CCN(C(=O)COc2ccccc2C(F)(F)F)CC1 + CCCCNC(=O)OCC#CI [3-iodo-2-propynyl butylcarbamate (IPBC)] is entered as 98.4%
